Experimental data from publication PMC7819943, “Rice protein-binding microarrays: a tool to detect cis-acting elements near promoter regions in rice”.
Some of the results follow.

Each sequence was assayed against T1, OsSMF1 (Oryza sativa, UniProt Q6ZLB0 1-436) (assay: protein-binding microarray (RPBM); PBS, 2% BSA, 51.3 ng/ul salmon testes DNA, 50 uM zinc acetate, 200 nM TF, 25 C, 1 h; high values mean tight binding). Details: protein: recombinant; tags: N-terminal polyhistidine and DsRed monomer fusion (pET32a); chain copies: 2; label: CyDye5-dUTP incorporated in the synthesized complementary strand; 3' TTTTT single-stranded linker to array surface; dsDNA, one strand shown.
T1 sequence: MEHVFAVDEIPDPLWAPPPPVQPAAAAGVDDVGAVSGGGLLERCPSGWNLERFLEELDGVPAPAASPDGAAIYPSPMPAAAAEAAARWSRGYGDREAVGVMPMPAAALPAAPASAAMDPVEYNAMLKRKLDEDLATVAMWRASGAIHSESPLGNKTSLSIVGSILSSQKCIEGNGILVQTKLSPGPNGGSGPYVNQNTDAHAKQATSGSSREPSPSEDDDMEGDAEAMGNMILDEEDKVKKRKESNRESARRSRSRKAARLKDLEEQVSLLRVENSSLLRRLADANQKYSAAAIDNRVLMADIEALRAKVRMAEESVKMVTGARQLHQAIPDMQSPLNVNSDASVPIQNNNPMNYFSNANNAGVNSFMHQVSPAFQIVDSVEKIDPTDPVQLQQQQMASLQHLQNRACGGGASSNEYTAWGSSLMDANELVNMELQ
How it was run: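 Per-feature fluorescence intensity (arbitrary units), read on an Axon 4000B scanner, is the binding signal. Transcription factors carrying an N-terminal polyhistidine tag and DsRed fusion were expressed in E. coli BL21-CodonPlus and purified on Ni–NTA. A custom Agilent array, made double-stranded by primer extension with Cy5-dUTP and blocked with 2% BSA, was incubated with 200 nM protein in PBS, 2% BSA, salmon testes DNA and 50 µM zinc acetate at 25 °C for 1 h and then washed.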
“TCATCGTCTCCGACGCCGACGAACTCCCACTCACTAGTAGCGGAGTCACCTAGTGCAG” was tested, and the binding signal was 3450 fluorescence intensity (a.u.).
In the case of “TTCTTGTGGTCTACTGGCCAAAATTTTGACTCCTTCAGTTCGGAGTCACCTAGTGCAG”, the binding signal was 3270 fluorescence intensity (a.u.).
For “CTATTTAGCTCATTGACAAATCCGATGTGGCAGTTTTATCCGGAGTCACCTAGTGCAG”, the binding signal was 4950 fluorescence intensity (a.u.).
With “GCCGCCGGTAGAATCCATGGTGCGGATTCGCGCCAGCGTGCGGAGTCACCTAGTGCAG” the binding signal was 13700 fluorescence intensity (a.u.).
For “GGATTTAAATATCTGACATCACTACAAATTTTACGCCTCTCGGAGTCACCTAGTGCAG”, the binding signal was 8080 fluorescence intensity (a.u.).
In the case of “TTACCAAAATTTAGTCGCACATGAGTCGGACAGTTGGAACCGGAGTCACCTAGTGCAG”, the binding signal was 3570 fluorescence intensity (a.u.).
With “AGTGTGCGTGTGTCGTGAGCACCGGCATTTCAGCCGTATTCGGAGTCACCTAGTGCAG” the binding signal was 3350 fluorescence intensity (a.u.).
In the case of “TTCCTCTCCCGACCCTGACGTGGTTCACTTTGAGTATCGCCGGAGTCACCTAGTGCAG”, the binding signal was 6090 fluorescence intensity (a.u.).
In the case of “AGGAATGGATCCGAGAGAAGGAATCCTAGTCATGTGTTTGCGGAGTCACCTAGTGCAG”, the binding signal was 6740 fluorescence intensity (a.u.).
For “TCCTGCTGCTGCGGTCGCTGTCAGCTCGTCCTCATCCTCCCGGAGTCACCTAGTGCAG”, the binding signal was 3590 fluorescence intensity (a.u.).
For “GCCGGTCTTTCCGTCACCTCGGTACGTGTTCAATATGTTGCGGAGTCACCTAGTGCAG”, the binding signal was 4530 fluorescence intensity (a.u.).
With “GCTTCCCCACAGGACACGTCACCCTCCCTCCTGCCCCTACCGGAGTCACCTAGTGCAG” the binding signal was 38200 fluorescence intensity (a.u.).
With “TTCTATTTTCAATTCCTTTGATGACTAGGCTACCACGTCACGGAGTCACCTAGTGCAG” the binding signal was 11300 fluorescence intensity (a.u.).
For “GAGAGGATGACACGTGGGCCCCGCATGTCAAGGGTCAAACCGGAGTCACCTAGTGCAG”, the binding signal was 9500 fluorescence intensity (a.u.).
“AAAGAGCAGGACATGAGCGGAAATTGCTAGGGCCATGACGCGGAGTCACCTAGTGCAG” was tested, and the binding signal was 3150 fluorescence intensity (a.u.).
“AGATCACACACAACACGCACATCACGAACCGGACCAAACCCGGAGTCACCTAGTGCAG” was tested, and the binding signal was 3660 fluorescence intensity (a.u.).
“GTATATTCTGGCCATGAGGTGACGGGAAGCCCACGTCGATCGGAGTCACCTAGTGCAG” was tested, and the binding signal was 4170 fluorescence intensity (a.u.).
For “AGCTCAAGGCACGCCGCGTGGAACCCGTCCGCGCCGAGCGCGGAGTCACCTAGTGCAG”, the binding signal was 3850 fluorescence intensity (a.u.).
With “TATGTTGCCTAGATACATGACCTGTCCCTCCAGTCTCCCTCGGAGTCACCTAGTGCAG” the binding signal was 5400 fluorescence intensity (a.u.).
With “TTTTGTAACTCGATGACAAGTTGAGGGTCCTTTGGTGTACCGGAGTCACCTAGTGCAG” the binding signal was 12900 fluorescence intensity (a.u.).
With “CTGTTTGCAATTTGCAATGAGGTGTCAACTACCTCATTCTCGGAGTCACCTAGTGCAG” the binding signal was 3430 fluorescence intensity (a.u.).
“AGTGGGTTTCGTCCAAATACCACGCTGGGAGTGGGCTTTACGGAGTCACCTAGTGCAG” was tested, and the binding signal was 3900 fluorescence intensity (a.u.).
For “ACGCACTTTGACACTTGTCACTTGAGTACATATATTTTGGCGGAGTCACCTAGTGCAG”, the binding signal was 3160 fluorescence intensity (a.u.).
“GCCTCCCTCTGTGACATCGTCGAATTTTATCGCGCCCTCCCGGAGTCACCTAGTGCAG” was tested, and the binding signal was 3790 fluorescence intensity (a.u.).
In the case of “CCCAACTACGACCTCCCCGCCCTGGCGCACGGCGGGACCGCGGAGTCACCTAGTGCAG”, the binding signal was 3550 fluorescence intensity (a.u.).
For “CGTCCGTGCGAATGATTGCATCTGCGCGAGCGACGCCGTTCGGAGTCACCTAGTGCAG”, the binding signal was 3430 fluorescence intensity (a.u.).
For “ATTGATGTGAAGAACAAATAGTCAATATTATTCTGTATATCGGAGTCACCTAGTGCAG”, the binding signal was 16900 fluorescence intensity (a.u.).
“GCTAGGTTCAACGTCATGCCTCATGTTGTCTATTGCTGTTCGGAGTCACCTAGTGCAG” was tested, and the binding signal was 4070 fluorescence intensity (a.u.).
With “GCGGGTAGGATGGAAGGCCAGCGAGGTGGCACCGCTGGCGCGGAGTCACCTAGTGCAG” the binding signal was 3540 fluorescence intensity (a.u.).
In the case of “GTCACCAGGGTTGGTTGTTGGAGCCTTTGGACCAATCACGCGGAGTCACCTAGTGCAG”, the binding signal was 6470 fluorescence intensity (a.u.).
With “AATTTGGTGACGCGTCTCTTTTCTCTCTCTTCTTCTTCTTCGGAGTCACCTAGTGCAG” the binding signal was 14400 fluorescence intensity (a.u.).
In the case of “CTTTTGCGACTGCTCGTGTCAGCGACGTGGCTGAACCGCGCGGAGTCACCTAGTGCAG”, the binding signal was 5260 fluorescence intensity (a.u.).
With “GAACATAATGTTGTTGTCTGAAGTTGCACAGTCATTAAGGCGGAGTCACCTAGTGCAG” the binding signal was 4310 fluorescence intensity (a.u.).
With “TGTCTGTTACTTATTTCAAGTCATTTATGTTTAGAAACACCGGAGTCACCTAGTGCAG” the binding signal was 3220 fluorescence intensity (a.u.).
With “CCGGAAATCTGAAAATTCTGTCCACGTGGGCCCAGAAACCCGGAGTCACCTAGTGCAG” the binding signal was 10300 fluorescence intensity (a.u.).
With “GATAAAACATGATTAATATTTTATGCGTGACTTGTCTTTTCGGAGTCACCTAGTGCAG” the binding signal was 3460 fluorescence intensity (a.u.).
“CTTATTACTGTTCGAGCTTATGTCACATCTATTCCAAGGACGGAGTCACCTAGTGCAG” was tested, and the binding signal was 4460 fluorescence intensity (a.u.).
For “CGGCGCGCAGTGGGACCCACGTGTCGGTCTCATACTCACCCGGAGTCACCTAGTGCAG”, the binding signal was 8520 fluorescence intensity (a.u.).
With “GTTCTTCACCTCTCGCTCCTATAAAATCCAACGTGGACAACGGAGTCACCTAGTGCAG” the binding signal was 30500 fluorescence intensity (a.u.).
In the case of “AACAAACCAGAATCCACGCAAGCAGCAGCCGAAGGGATGCCGGAGTCACCTAGTGCAG”, the binding signal was 6050 fluorescence intensity (a.u.).
“CAACTGTGTACGTCATTTTGTTTGCTCTTTTATACATGTACGGAGTCACCTAGTGCAG” was tested, and the binding signal was 7200 fluorescence intensity (a.u.).
“GGATGGTAGTGCGGAGAGAGTGACGTGTAAGCGAGGAATCCGGAGTCACCTAGTGCAG” was tested, and the binding signal was 11900 fluorescence intensity (a.u.).
